According to US20250353895A1, “METHOD FOR ANALYZING G-PROTEIN CONJUGATED RECEPTOR” (Kao Corporation, priority 2022, published 2025):

B1: VN1R1: original human vomeronasal receptor VN1R1 (protein, listed as Homo sapiens)
chain: MVGDTLKLLSPLMTRYFFLLFYSTDSSDLNENQHPLDFDEMAFGKVKSGISFLIQTGVGILGNSFLLCFYNLILFTGHKLRPTDLILSQLALANSMVLFFKGIPQTMAAFGLKYLLNDTGCKFVFYYHRVGTRVSLSTICLLNGFQAIKLNPSICRWMEIKIRSPRFIDFCCLLCWAPHVLMNASVLLLVNGPLNSKNSSAKNNYGYCSYKASKRFSSLHAVLYFSPDFMSLGFMVWASGSMVFFLYRHKQQVQHNHSNRLSCRPSQEARATHTIMVLVSSFFVFYSVHSFLTIWTTVVANPGQWIVTNSVLVASCFPARSPFVLIMSDTHISQFCFACRTRKTLFPNLVVMP
B2: TAAR6: original human trace amine-associated receptor TAAR6 (protein, listed as Homo sapiens)
chain: MSSNSSLLVAVQLCYANVNGSCVKIPFSPGSRVILYIVFGFGAVLAVFGNLLVMISILHFKQLHSPTNFLVASLACADFLVGVTVMPFSMVRTVESCWYFGRSFCTFHTCCDVAFCYSSLFHLCFISIDRYIAVTDPLVYPTKFTVSVSGICISVSWILPLMYSGAVFYTGVYDDGLEELSDALNCIGGCQTVVNQNWVLTDFLSFFIPTFIMIILYGNIFLVARRQAKKIENTGSKTESSSESYKARVARRERKAAKTLGVTVVAFMISWLPYSIDSLIDAFMGFITPACIYEICCWCAYYNSAMNPLIYALFYPWFRKAIKVIVTGQVLKNSSATMNLFSEHI
B3: TAAR8: original human trace amine-associated receptor TAAR8 (protein, listed as Homo sapiens)
chain: MTSNFSQPVVQLCYEDVNGSCIETPYSPGSRVILYTAFSFGSLLAVFGNLLVMTSVLHFKQLHSPTNFLIASLACADFLVGVTVMLFSMVRTVESCWYFGAKFCTLHSCCDVAFCYSSVLHLCFICIDRYIVVTDPLVYATKFTVSVSGICISVSWILPLTYSGAVFYTGVNDDGLEELVSALNCVGGCQIIVSQGWVLIDFLLFFIPTLVMIILYSKIFLIAKQQAIKIETTSSKVESSSESYKIRVAKRERKAAKTLGVTVLAFVISWLPYTVDILIDAFMGFLTPAYIYEICCWSAYYNSAMNPLIYALFYPWFRKAIKLILSGDVLKASSSTISLFLE
B4: TAAR5: original human trace amine-associated receptor TAAR5 (protein, listed as Homo sapiens)
chain: MRAVFIQGAEEHPAAFCYQVNGSCPRTVHTLGIQLVIYLACAAGMLIIVLGNVFVAFAVSYFKALHTPTNFLLLSLALADMFLGLLVLPLSTIRSVESCWFFGDFLCRLHTYLDTLFCLTSIFHLCFISIDRHCAICDPLLYPSKFTVRVALRYILAGWGVPAAYTSLFLYTDVVETRLSQWLEEMPCVGSCQLLLNKFWGWLNFPLFFVPCLIMISLYVKIFVVATRQAQQITTLSKSLAGAAKHERKAAKTLGIAVGIYLLCWLPFTIDTMVDSLLHFITPPLVFDIFIWFAYFNSACNPIIYVFSYQWFRKALKLTLSQKVFSPQTRTVDLYQE
B5: TAAR9: original human trace amine-associated receptor TAAR9 (protein, listed as Homo sapiens)
chain: MVNNFSQAEAVELCYKNVNESCIKTPYSPGPRSILYAVLGFGAVLAAFGNLLVMIAILHFKQLHTPTNFLIASLACADFLVGVTVMPFSTVRSVESCWYFGDSYCKFHTCFDTSFCFASLFHLCCISVDRYIAVTDPLTYPTKFTVSVSGICIVLSWFFSVTYSFSIFYTGANEEGIEELVVALTCVGGCQAPLNQNWVLLCFLLFFIPNVAMVFIYSKIFLVAKHQARKIESTASQAQSSSESYKERVAKRERKAAKTLGIAMAAFLVSWLPYLVDAVIDAYMNFITPPYVYEILVWCVYYNSAMNPLIYAFFYQWFGKAIKLIVSGKVLRTDSSTTNLFSEEVETD

Test system: HEK293 cells
Test: Measurement of receptor protein level on cell membrane (flow cytometry), receptor gene co-transfected with RTP1S
Format: cell-based, human
Details: for change in membrane expression level by the consensus design method: consensus receptor compared with original receptor, HEK293 cells, average values of three experiments; for Original Membrane expression level (%): original receptor on HEK293 cells, PE signal normalised, NC (no receptor) 0%, PC (FLAG-M2 acetylcholine receptor) 100%, average of three experiments

| Molecule | change in membrane expression level by the consensus design method | Original Membrane expression level (%) |
| --- | --- | --- |
| B1 | increase | −0.05 |
| B2 | increase | 0.10 |
| B3 | increase | 0.06 |
| B4 | increase | 0.05 |
| B5 | increase | 0.25 |
